Read-outs that look alike come from different tables or passages of the source. Marks after values point to notes of the source that are not given here.
Test system: human plasma proteins
Details: for Recovery: mass balance after 24 hr of dialysis; for Plasma Concentration: measured following 24 h of dialysis

Compound | Recovery | Plasma Concentration (radiolabeled standards) | Recovery (listed as BA-1049 (Racemate)) | Plasma Concentration
CC(C)NC[C@H](O)COc1cccc2ccccc12 [[^3H]-Propranolol, L-(−)-[4-^3H]propranolol] | 73.9% | 72.8^b pM |  | 
CC(N)C1CCN(S(=O)(=O)c2cccc3cnccc23)CC1.Cl.Cl (racemic) [BA-1049] | essentially complete |  | 98.1% | 5575 ng/mL
